The target in this experiment is Hsp90ab1 (human (endogenous in BGC823 and MKN45)) (UniProt P08238). Briefly: affinity purification with mass spectrometry; anti-Hsp90ab1 or IgG antibody incubated with BGC823 cell extracts, protein A/G beads; SDS-PAGE, silver staining, specific bands excised, LC-MS/MS.

By UniProt entry, the sequences of proteins in these tests, tags left out. Residues count along the entry.
UniProt P08238: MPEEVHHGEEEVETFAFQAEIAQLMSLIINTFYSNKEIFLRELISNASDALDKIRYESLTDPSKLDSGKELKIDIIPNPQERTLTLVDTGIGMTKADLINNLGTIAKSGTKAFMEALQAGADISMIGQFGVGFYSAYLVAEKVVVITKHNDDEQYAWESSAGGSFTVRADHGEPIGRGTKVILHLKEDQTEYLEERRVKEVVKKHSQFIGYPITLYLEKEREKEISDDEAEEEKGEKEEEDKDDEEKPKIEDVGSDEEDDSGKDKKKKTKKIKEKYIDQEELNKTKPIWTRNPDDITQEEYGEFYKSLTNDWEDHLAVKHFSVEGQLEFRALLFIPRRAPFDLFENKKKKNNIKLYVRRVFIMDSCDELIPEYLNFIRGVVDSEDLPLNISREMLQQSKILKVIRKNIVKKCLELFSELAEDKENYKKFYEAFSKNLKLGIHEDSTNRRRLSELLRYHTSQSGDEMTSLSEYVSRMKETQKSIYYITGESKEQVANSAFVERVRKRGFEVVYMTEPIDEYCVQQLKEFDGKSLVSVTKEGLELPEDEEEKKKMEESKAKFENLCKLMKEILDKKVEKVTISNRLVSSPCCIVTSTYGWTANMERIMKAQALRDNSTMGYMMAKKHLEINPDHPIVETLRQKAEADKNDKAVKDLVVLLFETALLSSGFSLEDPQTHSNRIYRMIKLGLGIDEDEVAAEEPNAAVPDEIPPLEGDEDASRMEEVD
UniProt O75197, residues 32-1615: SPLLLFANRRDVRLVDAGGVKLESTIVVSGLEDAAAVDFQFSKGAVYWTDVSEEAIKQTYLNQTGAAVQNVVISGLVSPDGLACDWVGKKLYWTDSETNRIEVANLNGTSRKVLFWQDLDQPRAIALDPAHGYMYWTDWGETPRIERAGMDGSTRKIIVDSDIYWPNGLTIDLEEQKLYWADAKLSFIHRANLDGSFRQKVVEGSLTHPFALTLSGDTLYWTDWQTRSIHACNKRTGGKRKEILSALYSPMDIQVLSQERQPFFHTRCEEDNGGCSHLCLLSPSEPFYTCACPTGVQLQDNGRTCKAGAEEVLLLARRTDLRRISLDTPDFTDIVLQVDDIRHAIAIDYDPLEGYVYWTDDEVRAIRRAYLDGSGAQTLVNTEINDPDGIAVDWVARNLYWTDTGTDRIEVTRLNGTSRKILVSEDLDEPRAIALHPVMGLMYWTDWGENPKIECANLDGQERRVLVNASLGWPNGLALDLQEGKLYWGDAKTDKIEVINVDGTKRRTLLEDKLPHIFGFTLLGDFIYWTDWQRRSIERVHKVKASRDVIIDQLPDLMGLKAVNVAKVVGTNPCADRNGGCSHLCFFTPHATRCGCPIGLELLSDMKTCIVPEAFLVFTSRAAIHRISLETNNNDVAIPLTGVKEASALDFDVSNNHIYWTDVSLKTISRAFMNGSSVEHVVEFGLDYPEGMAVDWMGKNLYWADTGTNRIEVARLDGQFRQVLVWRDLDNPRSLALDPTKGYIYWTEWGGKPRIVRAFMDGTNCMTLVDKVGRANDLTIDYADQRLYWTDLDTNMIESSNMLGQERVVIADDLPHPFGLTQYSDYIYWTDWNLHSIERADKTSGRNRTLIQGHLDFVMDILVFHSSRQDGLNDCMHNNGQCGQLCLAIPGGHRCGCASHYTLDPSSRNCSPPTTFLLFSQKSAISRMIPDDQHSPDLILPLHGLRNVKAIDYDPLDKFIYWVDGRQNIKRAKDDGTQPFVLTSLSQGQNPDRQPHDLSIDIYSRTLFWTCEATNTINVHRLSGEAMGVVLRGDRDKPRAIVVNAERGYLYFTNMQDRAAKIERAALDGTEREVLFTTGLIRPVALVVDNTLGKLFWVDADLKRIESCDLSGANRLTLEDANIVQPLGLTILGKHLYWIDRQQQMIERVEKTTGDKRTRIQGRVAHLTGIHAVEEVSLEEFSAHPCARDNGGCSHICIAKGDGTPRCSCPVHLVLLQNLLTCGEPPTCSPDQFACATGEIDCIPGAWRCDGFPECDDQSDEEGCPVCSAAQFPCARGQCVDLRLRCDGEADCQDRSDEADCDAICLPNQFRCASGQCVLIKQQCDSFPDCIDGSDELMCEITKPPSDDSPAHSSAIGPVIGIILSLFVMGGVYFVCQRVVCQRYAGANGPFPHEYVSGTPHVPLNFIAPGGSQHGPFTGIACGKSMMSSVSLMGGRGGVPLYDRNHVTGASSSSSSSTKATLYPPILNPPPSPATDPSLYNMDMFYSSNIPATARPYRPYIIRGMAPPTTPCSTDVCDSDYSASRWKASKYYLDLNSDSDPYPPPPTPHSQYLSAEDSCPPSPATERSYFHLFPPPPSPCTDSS

Our source for the binding values is PMC6372478.

No constants are given. Whether binding was seen depends on the method and setting. In cells and extracts the contact can be indirect. A yes stands for co-enrichment or nearness to the bait. Other partners may have been found.

Consider “low-density lipoprotein receptor-related protein 5 (from UniProt O75197 32-1615)”, for which the binding entry is “binds”.
